Data taken from ChEMBL document CHEMBL3988442, “University of Dundee, Small-Polar-MMV Screening Library” (2021).

Values are the deposited “Percent Effect”, in %. How 0% and 100% were set is not recorded. Most values in the screen are low, and negative values occur. This is an unselected part of the compounds tested. Two or more numbers in one place are separate tests of the same structure; such repeats can differ widely.

A: 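Phenotypic screen: M. tuberculosis growth, cholesterol and DPPC medium, 4 days; the read-out is not stated. Concentration: 50 µM. Direction is inferred from retests: higher values go with more growth inhibition. Size under these conditions: about 69,000 compounds, about 370 of them at 50% or above in at least one test.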
B: 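Growth of Mycobacterium tuberculosis over 3 days (7H9 medium with glucose and tyloxapol); the read-out is not stated. Tested at 50 µM. Direction is inferred from retests: higher values go with more growth inhibition. About 69,000 compounds were tested under these conditions; 1.1% (about 760) showed 50% or more at least once.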

| structure | A | B |
|---|---|---|
| `CC1CN(C(=O)CN(Cc2ccccc2)C2CC2)CCO1` (centres unmarked) | -10.21 | -6.762 |
| `Cc1csc(CNCC2CCCN(C(=O)OC(C)(C)C)C2)n1` (centres unmarked) | -16.29 | -35.67 |
| `Cc1nc[nH]c1CN(Cc1ccccc1)Cc1nccs1` | 12.86 | -1.63 & 0.2266 |
| `CC(C)c1cc(C(=O)N(Cc2ccncc2)CC2CCCO2)no1` (centres unmarked) | -7.285 | -6.907 & -10.88 |
| `NCC1Cc2cccc(-c3ccc(O)c(F)c3)c2O1` (centres unmarked) | -5.972 | -7.158 & 5.643 |
| `COCCO[C@H]1CCN(c2cc(OC)ncn2)[C@H]1Cc1cccnc1.O=C(O)C(F)(F)F` | -0.2861 | 18.43 & 3.195 |
| `COc1ccc(-c2cnc(N(C)C)nc2C2CN(C(C)=O)CCO2)cc1` (centres unmarked) | -6.193 | -16.93 |
| `[H][C@@]12COC[C@H](C(=O)Nc3cnccn3)[C@]1([H])CN(S(C)(=O)=O)C2` | -34.69 | -9.22 |
| `COc1cccc2c1ccn2CCNC(=O)C1CCC1` | -2.77 | 9.695 |
| `COCCCC1CCCCN1C(=O)c1ccc(SCCO)cc1` (centres unmarked) | -6.369 | -31.69 |
| `CCS(=O)(=O)N1CCC(c2nnc(C(F)(F)F)o2)CC1` | 34.62 | 42.88 |
| `Cn1ccc(C(=O)N2CCCC2c2cc[nH]n2)n1` (centres unmarked) | -14.67 & -14.67 | -10.22 |
| `CCC(C)Nc1ccc2c(c1)C1(CCOCC1)C(=O)N2c1ccccc1` (centres unmarked) | 4.856 | 3.026 & -1.324 |
| `COCCCn1ccc(NC(=O)NCCCn2ccnc2)n1` | -1.522 | 7.804 |
| `Cc1cc2nc(C(C)C)cc(N3CCN(c4ccc(O)cc4)CC3)n2n1` | 0.1705 | 20.44 |
| `COCC(O)CNc1ccc(C#N)cc1C(F)(F)F` (centres unmarked) | 2.639 | -27.52 |
| `Cc1cc(CN2CCN(CC(O)c3ccc4c(c3)OCO4)CC2)no1` (centres unmarked) | -4.174 | -15.85 |
| `Cc1noc(C2(C)CCN(C(=O)C(C)C)CC2)n1` | -9.614 | -5.86 |
| `CN1CCCC(Cc2cncc(C(=O)NC3CC3)c2)C1` (centres unmarked) | -5.36 | -19.8 |
| `N#Cc1ccc(SCCC(=O)NC(N)=O)cc1` | 20.48 | 11.21 & 25.34 |
| `CN(C)CCCn1ccnc1C1CCCN(c2cc(N)ncn2)C1` (centres unmarked) | -12.78 | -23.85 |
| `O=C(NCC1CC(=O)N(CCc2ccccc2)C1)c1ccon1` (centres unmarked) | -2.268 | -9.208 |
| `Cc1cc(O)c(OCC(=O)/N=c2\[nH]c(C)cs2)cn1` | -3.199 | -13.15 |
| `CC(=O)N1CCN(C(=O)CNc2cccc(OC(F)F)c2C)CC1` | -38.9 | 22.94 |
| `CCc1cccc(OCCn2cccc(C#N)c2=O)c1` | 3.592 | 9.006 & 10.37 |
| `CCn1nc(C)c(CNC(=O)NCC(C)(O)c2ccc(C)o2)c1C` (centres unmarked) | -17.26 | 0.8842 & 0.143 |
| `CN(C)C(=O)c1ccc(CNc2c(Cl)cccc2C#N)cc1` | -18.47 | -2.306 |
| `CC(C)SCc1cccc(NC(=O)NCCc2nnc[nH]2)c1` | 14.71 | 23.22 & 1.316 |
| `Cc1cc(C)n(CC2CN(CC(=O)NC3(C#N)CCCC3)CCO2)n1` (centres unmarked) | 1.97 | 21.36 |
| `COc1cccc(C2SCC(=O)Nc3n[nH]cc32)c1OC(C)C` (centres unmarked) | -23.92 | 1.029 |
| `CCc1cc2cc(OC)c(OC)cc2nc1SCCN1CCCCC1.Cl` | 16.52 | 21.56 |
| `CC(C)[C@@H]1CN(C2CCN(Cc3ccccc3)CC2)C[C@H]1NS(C)(=O)=O` | 0.9474 | 1.912 |
| `Cc1ccc(-n2c(COCC(=O)O)nc3c(C)cccc32)nc1` | -5.544 & 18.84 | 5.446 |
| `Cl.O=C(NC[C@@]1(COc2cnccn2)C[C@@H](O)[C@@H](O)C1)C1CCOCC1` | 6.038 | -2.531 & -17.46 |
| `[H][C@@]12CCCO[C@]1([H])[C@@H](N(C)Cc1cncnc1)CN2Cc1ccc(C)o1` | -17.1 | -0.8505 & -52.15 |
| `COc1ncccc1C(=O)N1CCC(c2nnc(C3CC3)o2)CC1` | -4.377 | 8.057 |
| `CN(Cc1noc2c1CCCC2)C(=O)CN1C(=O)CSc2ccccc21` | -12.37 | -35.69 |
| `COc1cccc(Cn2cc(C3=CCN(CC(=O)N(C)C)CC3)cn2)c1` | -3.809 | -2.944 & 2.466 |
| `CCN1CC(COC(=O)c2ccc(Br)cc2F)CC1=O` (centres unmarked) | 19.48 | 55 |
| `COc1cc(/C=C/c2ncc(C(=O)O)s2)cc(OC)c1` | -16.18 | -34.54 |
| `Cc1nonc1CN(C)Cc1cnn(-c2ccc(F)cc2)c1` | 4.161 | 28.75 |
| `CC(=O)c1c(F)cccc1N1CCC(Cc2cccnc2)CC1` | 2.52 | 51.31 |
| `[H][C@@]12CC[C@@]([H])(C1)N(CCC(=O)N1CCN(c3cccc(Cl)c3)C(=O)C1)C2` | 1.082 | -3.138 & -13.06 |
| `CCCS(=O)(=O)NC(C)C(=O)NCc1ccnc(N2CCCC2)c1` (centres unmarked) | -4.386 | -2.592 |
| `O=C(NCCCOc1cccnc1)c1cn(CCc2ccccc2)nn1` | 12.56 | 2.715 |
| `O=C(CN1CCOCC1CC(=O)c1ccco1)NCc1ccccn1` (centres unmarked) | 8.871 | 6.959 & -5.828 |
| `CCOCC(=O)N1CCn2cc(CN(C)Cc3ccco3)nc2C1` | -9.673 & -85.94 | 13.23 & -4.609 |
| `Cc1cccc2c1OCCCC2NCc1nnc2n1CCCCC2` (centres unmarked) | -18.29 | -15.5 |
| `CC(C)S(=O)(=O)CCN1CCN(C(C#N)c2ccccc2)CC1` (centres unmarked) | -17.63 | -24.32 |
| `O=C(NC[C@H]1COCc2nc3cc(F)ccc3n21)c1cccnc1` | -0.5077 | -7.866 & -0.3167 |
| `Cn1c(=O)n(C)c2nc(Cl)c(CC(=O)c3ccccc3)n2c1=O` | -25 | -24.57 |
| `Cn1ccnc1C1CCCN(C(=O)c2ccc3nccnc3c2)C1` (centres unmarked) | -14.91 & -16.45 | 0.1639 |
| `CC(C)(C)c1ncc(C(=O)NCCNc2ncccn2)s1` | 9.876 | -5.533 |
| `O=C(Nc1ccc(-n2cncn2)c(F)c1)C1CCN(C(=O)C2CC2)CC1` | 2.864 | -10.54 & 7.899 |
| `Cc1ccc(C(=O)N2C[C@H](NS(C)(=O)=O)[C@@H](C(C)C)C2)cc1F` | 7.239 | 16.58 |
| `c1cncc(-c2noc(CNC3CCCN(c4cccnn4)C3)n2)c1` (centres unmarked) | -15.48 | 2.312 & -4.557 |
| `COc1ccc(CNc2nnc(CC(C)(C)C)o2)cc1C#N` | 14.69 | -9.388 |
| `COc1cc(CNCC(O)c2ccccc2F)cc2c1OCO2` (centres unmarked) | 6.81 | -18.57 & -0.9822 |
| `CCc1sc(-c2nnc(CNCCn3cccn3)o2)cc1C` | -8.098 | -0.6689 & 1.589 |
| `O=C(O)C(F)(F)F.[H][C@@]12CCN(Cc3ccsc3)C[C@@]1([H])[C@H](C(=O)NC)CCO2` | 33.27 & 17.19 | -21.97 |
| `CC(C)c1nnc2n1CCN(C(=O)CN(C)Cc1ccccc1)C2` | -6.646 | 6.453 |
| `Cc1cnn(CC2CCCN2C(=O)c2cc3ccccc3[nH]c2=O)c1` (centres unmarked) | 0.7165 | -34.45 |
| `Cc1cc(C)n(NC(=O)c2ccccc2C)c(=O)c1` | 0.4492 | -5.297 |
| `CCC(C)NC(=O)N1CCCn2cnc(CO)c2C1` (centres unmarked) | -26.06 | -12.84 |
| `CC(C)N(Cc1ccccn1)C(=O)CCC(=O)c1ccc(F)cc1F` | -7.95 | 20.2 |
| `Cc1nn(C)c(C)c1NC(=O)CNc1ccc(F)c(C(F)(F)F)c1` | 31.26 | 19.64 |
| `CN1CCN(C2CCN(Cc3ccc(Cl)s3)CC2)C1=O` | -9.737 | 6.543 & 6.152 |
| `COc1cc(N2CCc3ncnc(-c4ccoc4)c3CC2)ncn1` | 10.9 | 6.032 & 18.39 |
| `CS(=O)(=O)N1CCC(NC(=O)COc2cccc(Cl)c2)CC1` | -0.7721 | 20.88 |
| `CCC(O)Cn1nc(CCSC)nc1-c1ccc2[nH]ccc2c1` (centres unmarked) | -5.895 | -10.83 & -13.91 |
| `[H][C@@]12NC(=O)N[C@@H](c3ccccc3C(=O)O)[C@]1([H])CCCO2` | -22.24 & -1.894 | -3.554 |
| `N#Cc1ccc(S(=O)(=O)NC(=O)c2ccc3c(c2)COC3)cc1` | -21.88 | -28.1 & -5.778 |
| `CCCc1cnc(C)nc1N1CCC(Cc2cccc(C(N)=O)c2)C1` (centres unmarked) | -22.34 | -12.63 |
| `COc1ccc(N2CCN(C(=O)CCn3nccc3C)CC2(C)C)cc1` | -21.98 & 1.032 | -36.91 |
| `NC(=O)c1cn2cc(-c3ccccc3Cl)n(CC3CC3)c(=O)c2n1` | -21.12 | -28.48 |

Some entries from above, unchanged:

- CCOCC(=O)N1CCn2cc(CN(C)Cc3ccco3)nc2C1 | A: -9.673% & -85.94%; B: 13.23% & -4.609%
- Cc1csc(CNCC2CCCN(C(=O)OC(C)(C)C)C2)n1 (centres unmarked) | A: -16.29%; B: -35.67%
- CCCS(=O)(=O)NC(C)C(=O)NCc1ccnc(N2CCCC2)c1 (centres unmarked) | A: -4.386%; B: -2.592%
- O=C(NC[C@H]1COCc2nc3cc(F)ccc3n21)c1cccnc1 | A: -0.5077%; B: -7.866% & -0.3167%
- [H][C@@]12CC[C@@]([H])(C1)N(CCC(=O)N1CCN(c3cccc(Cl)c3)C(=O)C1)C2 | A: 1.082%; B: -3.138% & -13.06%